Earlier results, collected in US20200375999A1, “PHARMACEUTICAL COMBINATIONS OF EGFR INHIBITORS AND METHODS OF USE THEREOF” (DANA-FARBER CANCER INSTITUTE, INC., priority 2018, published 2020).
For at least one compound, name, drawing or mass did not settle the structure.

System: NSCLC resistant to gefitinib or erlotinib
Conditions: patients with NSCLC resistant to gefitinib or erlotinib; cited from earlier work

CN(C)C/C=C/C(=O)Nc1cc2c(Nc3ccc(F)c(Cl)c3)ncnc2cc1O[C@H]1CCOC1 [Afatinib]
RR: < 10%
